Reference: patent US6491729B1

Assays:
[1] = tensile strength (load weight, displacement, stress, specific stress, strain at the maximum load point); settings: undyed fabric of gray silk goods
[2] = as above; settings: undyed fabric of gray polyester goods
[3] = bursting strength and softness of fabric; settings: undyed fabric of gray silk goods
[4] = tensile strength (load weight, displacement, stress, specific stress, strain at the maximum load point); settings: undyed fabric of gray nylon goods
[5] = yellowness index, whiteness index and Lab values of undyed fabric, Example 9; settings: gray polyester goods

SMILES: ClC(Cl)=C(Cl)Cl [perchloroethylene]
- displacement ([1]; dry-cleaned five times): 54.2 mm
- load weight ([1]; dry-cleaned five times): 28.29 kg
- specific stress ([1]; dry-cleaned five times): 28.29 kg/L
- strain ([1]; dry-cleaned five times): 27.1%
- stress ([1]; dry-cleaned five times): 5.14 kg/mm^2
- displacement ([1]; dry-cleaned one time): 52.77 mm
- load weight ([1]; dry-cleaned one time): 22.59 kg
- specific stress ([1]; dry-cleaned one time): 22.59 kg/L
- strain ([1]; dry-cleaned one time): 26.39%
- stress ([1]; dry-cleaned one time): 4.11 kg/mm^2
- displacement ([1]; dry-cleaned two times): 64.41 mm
- load weight ([1]; dry-cleaned two times): 23.81 kg
- specific stress ([1]; dry-cleaned two times): 23.81 kg/L
- strain ([1]; dry-cleaned two times): 33.7%
- stress ([1]; dry-cleaned two times): 4.33 kg/mm^2
- displacement ([2]; dry-cleaned five times): 54.62 mm
- load weight ([2]; dry-cleaned five times): 36.66 kg
- specific stress ([2]; dry-cleaned five times): 36.66 kg/L
- strain ([2]; dry-cleaned five times): 27.31%
- stress ([2]; dry-cleaned five times): 5.24 kg/mm^2
- displacement ([2]; dry-cleaned one time): 60.46 mm
- load weight ([2]; dry-cleaned one time): 33.2 kg
- specific stress ([2]; dry-cleaned one time): 33.2 kg/L
- strain ([2]; dry-cleaned one time): 30.23%
- stress ([2]; dry-cleaned one time): 4.74 kg/mm^2
- displacement ([2]; dry-cleaned two times): 60.35 mm
- load weight ([2]; dry-cleaned two times): 27.46 kg
- specific stress ([2]; dry-cleaned two times): 27.46 kg/L
- strain ([2]; dry-cleaned two times): 30.18%
- stress ([2]; dry-cleaned two times): 3.92 kg/mm^2
- bursting strength ([3]; dry-cleaned five times): 11 kg · f/cm^2
- bursting strength percentage of variation ([3]; dry-cleaned five times): −14.53%
- softness ([3]; dry-cleaned five times): 1.8 cm
- softness percentage of variation ([3]; dry-cleaned five times): −25%
- bursting strength ([3]; dry-cleaned one time): 11.75 kg · f/cm^2
- bursting strength percentage of variation ([3]; dry-cleaned one time): −8.7%
- softness ([3]; dry-cleaned one time): 2.1 cm
- softness percentage of variation ([3]; dry-cleaned one time): −12.5%
- bursting strength ([3]; dry-cleaned two times): 10.5 kg · f/cm^2
- bursting strength percentage of variation ([3]; dry-cleaned two times): −18.41%
- softness ([3]; dry-cleaned two times): 2 cm
- softness percentage of variation ([3]; dry-cleaned two times): −16.67%
- displacement ([4]; dry-cleaned five times): 63.23 mm
- load weight ([4]; dry-cleaned five times): 32.28 kg
- specific stress ([4]; dry-cleaned five times): 32.28 kg/L
- strain ([4]; dry-cleaned five times): 31.62%
- stress ([4]; dry-cleaned five times): 6.46 kg/mm^2
- displacement ([4]; dry-cleaned one time): 65.96 mm
- load weight ([4]; dry-cleaned one time): 32.81 kg
- specific stress ([4]; dry-cleaned one time): 32.81 kg/L
- strain ([4]; dry-cleaned one time): 32.98%
- stress ([4]; dry-cleaned one time): 6.56 kg/mm^2
- displacement ([4]; dry-cleaned two times): 59.26 mm
- load weight ([4]; dry-cleaned two times): 28.29 kg
- specific stress ([4]; dry-cleaned two times): 28.29 kg/L
- strain ([4]; dry-cleaned two times): 29.63%
- stress ([4]; dry-cleaned two times): 5.66 kg/mm^2
- L ([5]; dry-cleaned five times): 83.65
- a ([5]; dry-cleaned five times): 0.44
- b ([5]; dry-cleaned five times): −5.81
- c ([5]; dry-cleaned five times): 5.83
- h ([5]; dry-cleaned five times): 274.29
- ΔE ([5]; dry-cleaned five times): 4.47
- ΔL ([5]; dry-cleaned five times): −4.18
- Δa ([5]; dry-cleaned five times): 0.31
- Δb ([5]; dry-cleaned five times): 1.56
- Δc ([5]; dry-cleaned five times): −1.54
- Δh ([5]; dry-cleaned five times): 0.38
- L ([5]; dry-cleaned one time): 83.3
- a ([5]; dry-cleaned one time): 0.38
- b ([5]; dry-cleaned one time): −5.57
- c ([5]; dry-cleaned one time): 5.58
- h ([5]; dry-cleaned one time): 273.87
- ΔE ([5]; dry-cleaned one time): 4.88
- ΔL ([5]; dry-cleaned one time): −4.53
- Δa ([5]; dry-cleaned one time): 0.25
- Δb ([5]; dry-cleaned one time): 1.81
- Δc ([5]; dry-cleaned one time): 1.79
- Δh ([5]; dry-cleaned one time): 0.33
- L ([5]; dry-cleaned two times): 88.14
- a ([5]; dry-cleaned two times): 0.18
- b ([5]; dry-cleaned two times): −6.6
